The target of this assay is CD47 on the surface of cynomolgus monkey B cells (cynomolgus monkey). Nature of the assay: FACS on cynomolgus monkey B cells.

Results are given in words; binding and its absence hold for the method and conditions named. Some entries that bind do so weakly or less than the wild type.

B1: Hu-125G4A4m-43 (antibody, V domains shown)
VH: QVQLVQSGAEVKKPGSSVKVSCKASGYTFTSYYMHWVRQAPGQGLEWMGYIDPANDYSDYNQNFKDRVTITADKSTRTTYMELTSLRSEDTAVYYCARLGYGQSSPFDYWGQGTTVTVSS
VL: DIQMTQSPSSLSASVGDRVTITCKASQDIHNYLSWFQQKPGKAPKSLIYRAKRLVEGVPSRFSGSGSGQDYTLTISSLQPEDFATYYCLQYDELYTFGQGTRLEIK
notes: Humanized antibody, IgG4 S228P (IgG4P) subtype
Consider B1, for which the binding result is “binds”.

B2: Hu-125G4A4m-44 (antibody, V domains shown)
VH: QVQLVQSGAEVKKPGSSVKVSCKASGYTFTSYYMHWVRQAPGQGLEWMGYIDPANDYSDYNQNFKDRVTITADKSTRTTYMELTSLRSEDTAVYYCARLGYGQSSPFDYWGQGTTVTVSS
VL: DIKMTQSPSSLSASVGDRVTITCKASQDIHNYLSWFQQKPGKAPKTLIYRAKRLVEGVPLRFSGSGSGQDYTLTISSLQPEDFATYFCLQYDELYTFGQGTRLEIK
notes: as for B1
On to B2, for which the binding entry was “binds”.

B3: Hu-125G4A4m-50 (antibody, V domains shown)
VH: QVQLVQSGAEVKKPGSSVKVSCKASGYTFTSYYMHWVRQAPGQGLEWMGYIDPANDYSDYNQNFKDRATLTADKSTRTTYMELTSLRSEDTAVYYCARLGYGQSSPFDYWGQGTTVTVSS
VL: DIKMTQSPSSLSASVGDRVTITCKASQDIHNYLSWFQQKPGKAPKTLIYRAKRLVEGVPLRFSGSGSGQDYTLTISSLQPEDFATYFCLQYDELYTFGQGTRLEIK
notes: as for B1
For B3, the binding result was “binds”.

B4: Hu-125G4A4m-47 (antibody, V domains shown)
VH: QVQLVQSGAEVKKPGSSVKVSCKASGYTFTSYYMHWVRQAPGQGLEWMGYIDPANDYSDYNQNFKDRVTITADKSTRTAYMELTSLRSEDTAVYYCARLGYGQSSPFDYWGQGTTVTVSS
VL: DIKMTQSPSSLSASVGDRVTITCKASQDIHNYLSWFQQKPGKAPKTLIYRAKRLVEGVPLRFSGSGSGQDYTLTISSLQPEDFATYFCLQYDELYTFGQGTRLEIK
notes: as for B1
On to B4, for which the binding entry was “binds”.

B5: Hu-125G4A4m-46 (antibody, V domains shown)
VH: QVQLVQSGAEVKKPGSSVKVSCKASGYTFTSYYMHWVRQAPGQGLEWMGYIDPANDYSDYNQNFKDRVTITADKSTRTAYMELTSLRSEDTAVYYCARLGYGQSSPFDYWGQGTTVTVSS
VL: DIQMTQSPSSLSASVGDRVTITCKASQDIHNYLSWFQQKPGKAPKSLIYRAKRLVEGVPSRFSGSGSGQDYTLTISSLQPEDFATYYCLQYDELYTFGQGTRLEIK
notes: as for B1
Regarding B5, the binding entry is “binds”.

B6: humanized antibody HMA02h14-48 (antibody, V domains shown)
VH: QVQLVQSGAEVKKPGSSVKVSCKASGYTFTSYYMHWVRQAPGQGLEWMGYIDPANDYSDYNQNFKDRATLTADKSTRTTYMELTSLRSEDTAVYYCARLGYGQSSPFDYWGQGTTVTVSS
VL: DIQMTQSPSSLSASVGDRVTITCKASQDIHNYLSWFQQKPGKAPKSLIYRAKRLVEGVPSRFSGSGSGTDYTLTISSLQPEDFATYYCLQYDELYTFGQGTRLEIK
notes: Humanized antibody, IgG4 S228P (IgG4P) subtype; also called Hu-125G4A4m-48; Hu-125G4A4-48
As to B6, the binding result is “binds”.

B7: Hu-125G4A4m-45 (antibody, V domains shown)
VH: QVQLVQSGAEVKKPGSSVKVSCKASGYTFTSYYMHWVRQAPGQGLEWMGYIDPANDYSDYNQNFKDRVTITADKSTRTAYMELTSLRSEDTAVYYCARLGYGQSSPFDYWGQGTTVTVSS
VL: DIQMTQSPSSLSASVGDRVTITCKASQDIHNYLSWFQQKPGKAPKSLIYRAKRLVEGVPSRFSGSGSGTDYTLTISSLQPEDFATYYCLQYDELYTFGQGTRLEIK
notes: as for B1
For the molecule B7, the binding result is given as “binds”.

B8: Hu-125G4A4m-49 (antibody, V domains shown)
VH: QVQLVQSGAEVKKPGSSVKVSCKASGYTFTSYYMHWVRQAPGQGLEWMGYIDPANDYSDYNQNFKDRATLTADKSTRTTYMELTSLRSEDTAVYYCARLGYGQSSPFDYWGQGTTVTVSS
VL: DIQMTQSPSSLSASVGDRVTITCKASQDIHNYLSWFQQKPGKAPKSLIYRAKRLVEGVPSRFSGSGSGQDYTLTISSLQPEDFATYYCLQYDELYTFGQGTRLEIK
notes: as for B1
For the molecule B8, the binding result is given as “binds”.

(Values after patent publication US20230151110A1 (HUTCHISON MEDIPHARMA, published 2023).)
